The record followed here is the supplement of paper PMC3334620.

In all, about 33,000 sequences were measured (“E-score (-0.5 to 0.5)”: median about -0.016, highest 2% from about 0.3 on). The list shows a part of the results.

The target in this assay is T1, Yer184c (UniProt P39961).
T1 sequence: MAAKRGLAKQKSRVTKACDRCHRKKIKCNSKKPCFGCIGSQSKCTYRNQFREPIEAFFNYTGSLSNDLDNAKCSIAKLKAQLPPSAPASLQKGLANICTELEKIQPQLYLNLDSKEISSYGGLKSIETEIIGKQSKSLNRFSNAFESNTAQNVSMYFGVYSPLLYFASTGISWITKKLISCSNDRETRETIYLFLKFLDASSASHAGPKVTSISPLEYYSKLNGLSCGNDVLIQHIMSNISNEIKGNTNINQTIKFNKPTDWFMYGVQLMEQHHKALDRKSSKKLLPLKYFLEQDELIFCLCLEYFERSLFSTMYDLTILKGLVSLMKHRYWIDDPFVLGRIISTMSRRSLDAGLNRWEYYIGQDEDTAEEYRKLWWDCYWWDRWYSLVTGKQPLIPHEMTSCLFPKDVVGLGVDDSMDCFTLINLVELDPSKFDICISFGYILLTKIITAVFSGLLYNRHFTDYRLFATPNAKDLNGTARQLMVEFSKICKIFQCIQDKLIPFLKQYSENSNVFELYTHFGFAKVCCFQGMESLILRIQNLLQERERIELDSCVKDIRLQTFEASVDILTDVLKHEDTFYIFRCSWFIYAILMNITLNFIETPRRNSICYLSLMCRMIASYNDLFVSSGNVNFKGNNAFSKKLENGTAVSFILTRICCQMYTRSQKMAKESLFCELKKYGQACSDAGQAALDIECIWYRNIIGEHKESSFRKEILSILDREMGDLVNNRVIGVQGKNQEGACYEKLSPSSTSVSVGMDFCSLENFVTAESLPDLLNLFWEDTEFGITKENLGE
The assay can be described thus: PBM E-score (8-mer binding enrichment) (E-score (-0.5 to 0.5)); higher = stronger / more preferred TF binding. As to conditions: protein concentration: 100 nM; construct: GST-full length. The essentials:
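Yeast transcription factors carrying a GST tag, as full-length proteins or DNA-binding domains, were produced by PURExpress in vitro transcription/translation. About 100-200 nM protein was applied to universal all-10-mer Agilent arrays, double-stranded by primer extension on fresh or once-stripped slides. Bound protein was detected with fluorescent anti-GST, and scans were normalised with masliner. The Universal PBM Analysis Suite gave each ungapped eight-base word, pooled with its reverse complement, an E-score, a modified Wilcoxon-Mann-Whitney statistic.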
With CCAACTGG, the “PBM E-score” value is -0.0116.

Turning to ATTAACTA, the “PBM E-score” value is -0.113.

As to ATATACCA, the “PBM E-score” value is -0.0503.

As to ATTAATGG, the “PBM E-score” value was 0.201.

On to GCTGAGTA, for which the “PBM E-score” value is -0.105.

Take TACCACTA: the “PBM E-score” value was -0.109.

As to AAGAAACA, the “PBM E-score” value amounted to 0.183.

In the case of ACCAGTAT, the “PBM E-score” value is -0.00962.

For the sequence GGGCACCC, the “PBM E-score” value was -0.289.

Take CAGGACAG: the “PBM E-score” value was -0.0623.

As for ATCAAATC, the “PBM E-score” value was 0.124.

For the sequence AATTGAGA, the “PBM E-score” value is 0.115.

For CCGATTAC, the “PBM E-score” value was found to be 0.0738.

Take GAGGCCAA: the “PBM E-score” value was -0.0942.

Consider AGGGCAGG, for which the “PBM E-score” value is -0.216.

For the sequence CGGGAGGA, the “PBM E-score” value was found to be 0.188.

Take GATGGCGA: the “PBM E-score” value came to 0.0183.

AGAATACA: the “PBM E-score” value worked out at 0.0683.

With GTAGACCA, the “PBM E-score” value was -0.306.

Turning to AATATCGT, the “PBM E-score” value was 0.213.

For TGCTAACA, the “PBM E-score” value was found to be 0.092.

As for CGTTTCAA, the “PBM E-score” value was determined as 0.196.

For ATTGGATA, the “PBM E-score” value is 0.0134.

Turning to ACCTGGCA, the “PBM E-score” value is -0.0663.

For ATCTTATG, the “PBM E-score” value came to 0.0105.

As for ACTGGGTA, the “PBM E-score” value is -0.114.

As for AAATTTCA, the “PBM E-score” value is -0.147.

For GAGACATA, the “PBM E-score” value was 0.0248.

As for CGATCACA, the “PBM E-score” value amounted to 0.249.

Consider CCCTAATA, for which the “PBM E-score” value was -0.0423.

With GCTGTTGA, the “PBM E-score” value is 0.0945.

Regarding GCATTCAA, the “PBM E-score” value was found to be 0.147.

On to ACGATGAG, for which the “PBM E-score” value turned out to be 0.115.

Turning to GTGTGCAA, the “PBM E-score” value is -0.0158.

For the sequence CTACAGCA, the “PBM E-score” value is -0.0036.

CAATGACA: the “PBM E-score” value was -0.0728.

GAGACCAA: the “PBM E-score” value was found to be 0.0375.

Regarding AATTAAGA, the “PBM E-score” value is 0.139.

In the case of GATCTTCA, the “PBM E-score” value stood at 0.19.

Turning to ACTAAAAA, the “PBM E-score” value was 0.196.

For GCCTTTTA, the “PBM E-score” value was -0.125.

As for ACTCCCAA, the “PBM E-score” value was -0.0252.

Regarding CTCGAAAG, the “PBM E-score” value was determined as 0.0981.

With CGTTCTAG, the “PBM E-score” value is -0.00547.

Take CTAGACAG: the “PBM E-score” value is -0.0809.

In the case of ACTAGTAC, the “PBM E-score” value came out at 0.0175.

For the sequence ATGGGACA, the “PBM E-score” value is -0.226.

Regarding GCACGGCC, the “PBM E-score” value is 0.136.

Consider ACTATGAT, for which the “PBM E-score” value was determined as 0.0521.

With ACATTAGC, the “PBM E-score” value was -0.119.

As for CATTAGAA, the “PBM E-score” value is 0.145.

Take ACTTACTC: the “PBM E-score” value was -0.088.

As to CGCCTCGC, the “PBM E-score” value was -0.32.

CGCCCGTA: the “PBM E-score” value is -0.141.

For AGCTTGTC, the “PBM E-score” value is 0.111.

Take ACCACGAG: the “PBM E-score” value is -0.0103.

As for ATTTATAG, the “PBM E-score” value is -0.0174.

Take AATGATCG: the “PBM E-score” value came out at 0.0585.

As for CCACCCCA, the “PBM E-score” value is -0.217.

Consider CGGACGCA, for which the “PBM E-score” value is 0.0336.

On to ATATTACG, for which the “PBM E-score” value is 0.187.

As for CATAAGTA, the “PBM E-score” value was -0.0848.

Turning to GAAATAAA, the “PBM E-score” value came out at 0.219.

On to CGCCTGAG, for which the “PBM E-score” value was -0.0391.

Consider ACACACCT, for which the “PBM E-score” value was -0.00442.

Take CGACCGCG: the “PBM E-score” value was 0.236.

Regarding CAAACTGA, the “PBM E-score” value was 0.0606.

In the case of AATGGTAA, the “PBM E-score” value was 0.0886.

As to AAAACGCC, the “PBM E-score” value was determined as 0.173.

For the sequence GAGGGCCA, the “PBM E-score” value is -0.177.

On to GCTATCTA, for which the “PBM E-score” value was -0.0215.

For the sequence ACCTCTTC, the “PBM E-score” value was 0.00324.

Turning to CTGTTGCA, the “PBM E-score” value turned out to be 0.0607.

Regarding AGACTGGC, the “PBM E-score” value is -0.223.

Consider GGCTTACC, for which the “PBM E-score” value was -0.0572.

Take AAAACACT: the “PBM E-score” value was determined as 0.0868.

For CTTCACTC, the “PBM E-score” value was -0.00654.

As to CGTTAAGC, the “PBM E-score” value came to 0.0647.

Consider CGGTATAA, for which the “PBM E-score” value turned out to be 0.208.

With AACAGATT, the “PBM E-score” value stood at 0.0578.

Consider CGGGTTTC, for which the “PBM E-score” value was found to be 0.235.

For the sequence AAGCCGTG, the “PBM E-score” value worked out at 0.137.

AGGCCTAC: the “PBM E-score” value is -0.151.

Take CGGTTAAC: the “PBM E-score” value is 0.0718.

As for ATATCCTG, the “PBM E-score” value is -0.0574.

In the case of CATCGTTA, the “PBM E-score” value is -0.0914.
